Measured values published in patent US20100160221A1.
No constants are given. Whether binding was seen depends on the method and setting. Binding seen in cells or lysates may run through a third protein. Some entries that bind do so weakly or less than the wild type.

Molecular target: c-Cbl (UniProt P22681)
Assay: co-purification with c-Cbl from JMC-D3 lysate (Ni2+-chelation column, then agarose-immobilized anti-c-Cbl); bands identified by LC-MS/MS

B1: TULA from JMC-D3 cells (protein)
chain: MAAGETQLYAKVSNKLKSRSSPSLLEPLLAMGFPVHTALKALAATGRKTAEEALAWLHDHCNDPSLDDPIPQEYALFLCPTGPLLEKLQEFWRESKRQCAKNRAHEVFPHVTLCDFFTCEDQKVECLYEALKRAGDRLLGSFPTAVPLALHSSISYLGFFVSGSPADVIREFAMTFATEASLLADCSVKPCTKQLHLTLAHKFYPHHQRTLEQLARAIPLGHSCQWTAALYSRDMRFVHYQTLRALFQYKPQNVDELTLSPGDYIFVDPTQQDEASEGWVIGISQRTGCRGFLPENYTDRASESDTWVKHRMYTFSLATDLNSRKDGEASSRCSGEFLPQTARSLSSLQALQATVARKSVLVVRHGERVDQIFGKAWLQQCSTPDGKYYRPDLNFPCSLPRRSRGIKDFENDPPLSSCGIFQSRIAGDALLDSGIRISSVFASPALRCVQTAKLILEELKLEKKIKIRVEPGIFEWTKWEAGKTTPTLMSLEELKEANFNIDTDYRPAFPLSALMPAESYQEYMDRCTASMVQIVNTCPQDTGVILIVSHGSTLDSCTRPLLGLPPRECGDFAQLVRKIPSLGMCFCEENKEEGKWELVNPPVKTLTHGANAAFNWRNWISGN
With B1 the binding was “binds”.
